{"sequences": {"note": "By UniProt entry, the sequences of proteins in these tests, tags left out.", "UniProt Q96KQ7, whole entry": "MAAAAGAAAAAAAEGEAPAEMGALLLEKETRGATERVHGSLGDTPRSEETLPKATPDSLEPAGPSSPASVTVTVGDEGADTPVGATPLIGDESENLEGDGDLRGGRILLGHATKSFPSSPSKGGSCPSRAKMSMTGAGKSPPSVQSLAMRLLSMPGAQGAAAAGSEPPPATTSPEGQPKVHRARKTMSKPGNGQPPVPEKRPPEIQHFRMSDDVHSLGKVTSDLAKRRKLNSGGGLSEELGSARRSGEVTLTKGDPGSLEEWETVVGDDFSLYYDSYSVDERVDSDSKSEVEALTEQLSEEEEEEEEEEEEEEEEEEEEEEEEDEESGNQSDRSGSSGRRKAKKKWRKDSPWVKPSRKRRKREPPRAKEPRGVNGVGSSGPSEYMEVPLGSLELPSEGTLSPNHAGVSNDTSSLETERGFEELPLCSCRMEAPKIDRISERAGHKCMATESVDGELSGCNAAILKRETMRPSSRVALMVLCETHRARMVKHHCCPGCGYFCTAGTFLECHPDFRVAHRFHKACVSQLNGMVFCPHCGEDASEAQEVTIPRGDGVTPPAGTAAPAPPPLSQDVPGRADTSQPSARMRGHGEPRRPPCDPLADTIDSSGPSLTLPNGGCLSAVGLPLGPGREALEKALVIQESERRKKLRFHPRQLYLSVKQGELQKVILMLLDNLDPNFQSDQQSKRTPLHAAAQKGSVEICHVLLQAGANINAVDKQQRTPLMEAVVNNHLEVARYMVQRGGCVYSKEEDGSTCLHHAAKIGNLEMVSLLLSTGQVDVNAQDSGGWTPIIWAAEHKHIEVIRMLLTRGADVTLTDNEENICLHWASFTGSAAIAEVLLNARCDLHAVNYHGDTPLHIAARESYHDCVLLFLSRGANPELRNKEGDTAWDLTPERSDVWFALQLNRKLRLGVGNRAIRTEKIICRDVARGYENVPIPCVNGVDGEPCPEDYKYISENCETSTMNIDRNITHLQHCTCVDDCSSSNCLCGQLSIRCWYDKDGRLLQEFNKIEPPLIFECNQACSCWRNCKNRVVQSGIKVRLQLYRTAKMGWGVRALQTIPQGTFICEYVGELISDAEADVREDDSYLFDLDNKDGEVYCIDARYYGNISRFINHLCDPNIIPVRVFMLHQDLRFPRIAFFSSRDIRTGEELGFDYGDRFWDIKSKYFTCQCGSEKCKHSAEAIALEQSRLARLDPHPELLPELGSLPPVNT"}, "source": "patent US11584734B2", "about": "“Tricyclic compounds as histone methyltransferase inhibitors” (GLOBAL BLOOD THERAPEUTICS, INC., priority 2017, dated 2023)", "target": "G9a (Homo sapiens, UniProt Q96KQ7)", "assay": "G9a AlphaLISA enzymatic activity assay", "details": "negative log of IC50 in molar, 0.15 nM G9a, 15 uM S-adenosyl-methionine, 100 nM biotinylated histone 3 peptide (1-21)", "note": "The structures given here were assigned with low confidence; some may be wrong.", "data": [{"smiles": "COc1cc2c(NC3COCCOC3)c3c(nc2cc1OCCCN1CCCC1)CCC3", "values": [{"measurement": "pIC50", "value": 8.04}]}]}
